Experimental data as given in paper PMC5996148.
Values joined by “and” are separate entries in the source; they are usually repeats but may differ in a detail not shown here. Equal entries are not always repeated. This is one part of the list.

Key:
Experiment in all cases: protein microarray (ProtoArray v5.0), streptavidin-Alexa Fluor 647
Conditions in all cases: 3'-biotin; 20 mM Tris (pH 7.5), 5 mM MgCl2, 100 mM KCl, 0.1% Tween-20, A/T-rich and random oligonucleotide blockers; temperature not stated; high values mean tight binding
[1] = tested on: Phosphatase and actin regulator 4 (human)
[2] = tested on: Phosphatidylinositol-3,4,5-trisphosphate 3-phosphatase and dual-specificity protein phosphatase PTEN (human)
[3] = tested on: Phosphoacetylglucosamine mutase (human)
[4] = tested on: Phosphoglucomutase-2 (human)
[5] = tested on: Phosphoglycerate mutase 1 (human)
[6] = tested on: Phosphoglycerate mutase 2 (human)
[7] = tested on: Phospholipase DDHD2 (human)
[8] = tested on: Phospholysine phosphohistidine inorganic pyrophosphate phosphatase (human)
[9] = tested on: Photoreceptor-specific nuclear receptor (human)
[10] = tested on: Phytanoyl-CoA dioxygenase domain-containing protein 1 (human)

Question: “GGGAGGCTGAGGCAGG [G4-1 biotinylated (PQS2)]” was tested. Which binding signal [1] did it give?
Answer: Its binding signal is -0.331 z-score.

Question: And the binding signal [2]?
Answer: Its binding signal is -0.356 z-score.

Question: And the binding signal [3]?
Answer: Its binding signal is -0.352 z-score.

Question: What about the binding signal [4] of the same sequence?
Answer: The binding signal was -0.351 z-score.

Question: What about the binding signal [5] of the same sequence?
Answer: The binding signal was -0.333 z-score.

Question: What about the binding signal [6] of the same sequence?
Answer: The binding signal was -0.315 z-score.

Question: And the binding signal [7]?
Answer: Its binding signal is -0.347 z-score.

Question: What about the binding signal [8] of the same sequence?
Answer: Its binding signal is -0.331 z-score.

Question: What about the binding signal [9] of the same sequence?
Answer: Its binding signal is -0.324 z-score.

Question: And the binding signal [10]?
Answer: Its binding signal is -0.303 z-score and -0.323 z-score.
